Assay [1] addresses pM-ACTR(392-1005) (Gal4 DNA-binding domain fused to the NR box of human ACTR) (human) (UniProt Q9Y6Q9). The assay can be described thus: two-hybrid; mammalian 2-hybrid in HepG2 cells; pVP16-VDR as prey, pM-SRC1, pM-GRIP1 or pM-ACTR (NR box fused to the Gal4 DNA-binding domain) as bait; 5XGal4-TATA-Luc reporter; 120 nM 1,25D3 for 24 h; without cotransfected pCDNA-RXRWT.
Assay [2] deals with pM-GRIP1(479-767) (Gal4 DNA-binding domain fused to the NR box of human GRIP1) (human) (UniProt Q15596). Described as above.
Assay [3] has as its target pM-ACTR(392-1005) (Gal4 DNA-binding domain fused to the NR box of human ACTR) (human) (UniProt Q9Y6Q9). The assay can be described thus: two-hybrid; mammalian 2-hybrid in HepG2 cells; pVP16-VDR as prey, pM-SRC1, pM-GRIP1 or pM-ACTR as bait; 5XGal4-TATA-Luc reporter; 120 nM 1,25D3 for 24 h; with cotransfected pCDNA-RXRWT.

The chains behind the UniProt entries cited, without tags or fusion partners. Residues count along the entry.
UniProt Q9Y6Q9, residues 392-1005: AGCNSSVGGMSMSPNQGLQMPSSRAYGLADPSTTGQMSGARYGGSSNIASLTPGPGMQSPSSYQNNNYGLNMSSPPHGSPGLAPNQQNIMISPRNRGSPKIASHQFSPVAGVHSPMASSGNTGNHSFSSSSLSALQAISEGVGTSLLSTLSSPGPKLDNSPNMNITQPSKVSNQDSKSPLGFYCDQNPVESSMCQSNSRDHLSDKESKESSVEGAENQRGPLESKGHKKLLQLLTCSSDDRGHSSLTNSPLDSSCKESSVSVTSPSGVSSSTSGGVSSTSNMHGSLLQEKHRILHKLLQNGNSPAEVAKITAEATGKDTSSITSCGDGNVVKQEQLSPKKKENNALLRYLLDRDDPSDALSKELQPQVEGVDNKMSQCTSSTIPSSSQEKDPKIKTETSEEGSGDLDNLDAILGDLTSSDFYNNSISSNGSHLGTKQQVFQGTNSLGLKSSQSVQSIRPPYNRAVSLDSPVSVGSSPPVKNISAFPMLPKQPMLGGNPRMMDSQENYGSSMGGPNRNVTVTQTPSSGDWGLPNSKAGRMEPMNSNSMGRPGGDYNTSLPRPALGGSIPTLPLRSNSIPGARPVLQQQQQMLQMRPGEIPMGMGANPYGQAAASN
UniProt Q15596, residues 479-767: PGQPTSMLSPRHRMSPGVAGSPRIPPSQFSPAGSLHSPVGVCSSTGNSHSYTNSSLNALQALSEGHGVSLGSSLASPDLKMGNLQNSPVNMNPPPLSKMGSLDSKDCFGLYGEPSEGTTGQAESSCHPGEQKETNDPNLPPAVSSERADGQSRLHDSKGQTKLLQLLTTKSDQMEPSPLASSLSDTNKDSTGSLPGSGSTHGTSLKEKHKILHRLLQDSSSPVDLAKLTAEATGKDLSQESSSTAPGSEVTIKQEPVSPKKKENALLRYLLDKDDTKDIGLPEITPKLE

Results are given in words; binding and its absence hold for the method and conditions named. Some results given as binding are weak or reduced against the parent protein; the word gives no strength.

B1: pVP16-human VDR (human vitamin D receptor) (receptor, UniProt P11473 1-427)
chain: MEAMAASTSLPDPGDFDRNVPRICGVCGDRATGFHFNAMTCEGCKGFFRRSMKRKALFTCPFNGDCRITKDNRRHCQACRLKRCVDIGMMKEFILTDEEVQRKREMILKRKEEEALKDSLRPKLSEEQQRIIAILLDAHHKTYDPTYSDFCQFRPPVRVNDGGGSHPSRPNSRHTPSFSGDSSSSCSDHCITSSDMMDSSSFSNLDLSEEDSDDPSVTLELSQLSMLPHLADLVSYSIQKVIGFAKMIPGFRDLTSEDQIVLLKSSAIEVIMLRSNESFTMDDMSWTCGNQDYKYRVSDVTKAGHSLELIEPLIKFQVGLKKLNLHEEEHVLLMAICIVSPDRPGVQDAALIEAIQDRLSNTLQTYIRCRHPPPGSHLLYAKMIQKLADLRSLNEEHSKQYRCLSFQPECSMKLTPLVLEVFGNEIS
Take B1: the binding result in assay [1] was “no binding”; in assay [2], “binds”; in assay [3], “no binding”.

(Values after article PMC4391915.)
